Measurements reported in ChEMBL document CHEMBL4265899, “Trisubstituted thiazoles as potent and selective inhibitors of Plasmodium falciparum protein kinase G (PfPKG)” (Bioorg Med Chem Lett, 2018).
≈ marks a conversion by molar mass, not a printed value.

Key:
[1] = Lipophilicity, log D of the compound at pH 7.4; conditions: buffer
[2] = Permeability of the compound by PAMPA
[3] = Kinetic solubility of the compound

CN1CCC(c2nc(-c3ccc(F)cc3)c(-c3ccnc(Nc4ccc(N5CCNCC5)cc4)n3)s2)CC1
logD [1]: 1.8
Papp [2]: 7.5 ×10⁻⁶ cm/s
solubility kinetic [3]: 209 µM (≈ 111 µg/mL)
